# Laboratory results taken from US12428442B2, “Compounds, compositions and methods for synthesis” (WAVE LIFE SCIENCES LTD., priority 2017, dated 2025).
# “And” between values parts separate entries of the source, which are not always exact repeats. Equal entries are not always repeated.
# Assay: Use of chiral auxiliaries / phosphoramidite monomers in oligonucleotide synthesis (SOCICS or DPSE cycle), analysed by RP-HPLC/UPLC (Table 7)
# Conditions: dC dimer
# [1] = cycle DPSE, activator 0.5M CMIMT
Compound,"Dimer Conv. % (cycle SOSICS, activator CMPT) [%]","Dimer HPLC Area % dC (cycle SOSICS, activator CMPT) [%]","Dimer HPLC Area % dCC (PO) (cycle SOSICS, activator CMPT) [%]","Dimer HPLC Area % dCC (Rp) (cycle SOSICS, activator CMPT) [%]","Dimer HPLC Area % dCC (Sp) (cycle SOSICS, activator CMPT) [%]","Dimer Rp/Sp (cycle SOSICS, activator CMPT)","Dimer d.r. (cycle SOSICS, activator CMPT)",Dimer Conv. % [1],Dimer HPLC Area % dC [1],Dimer HPLC Area % dCC (PO) [1],Dimer HPLC Area % dCC (Rp) [1],Dimer HPLC Area % dCC (Sp) [1],Dimer Rp/Sp [1],Dimer d.r. [1]
"C#C[C@@](C)(O)[C@@H]1CCCN1 [WV-CA-002, (R)-2-((S)-pyrrolidin-2-yl)but-3-yn-2-ol]",22.2,25.44,3.21,0.40,10.75,Sp,96.41,,,,,,,
C=C[C@@H](O)[C@@H]1CCCN1 [WV-CA-003],87.8,6.53,3.33,1.81,87.49,Sp,97.97,,,,,,,
C[C@](O)(C1CCCCC1)[C@H]1CCCN1 [WV-CA-005-D],80.3,10.7919,0.5767,85.9478,0.441,Rp,99.49,,,,,,,
C[C@@](O)(C1CCCCC1)[C@@H]1CCCN1 [WV-CA-005-L],79.8,10.9756,0.5404,0.6921,84.352,Sp,99.19,,,,,,,
"CN[C@@H](C1CCCCC1)[C@@](C)(O)c1ccccc1 [WV-CA-008-S, (1S, 2S)-1-cyclohexyl-1-(methylamino)-2-phenylpropan-2-ol]",4.0,83.31,0.55,5.97,0.28,Rp,95.45,,,,,,,
C[C@](O)(c1ccccc1)[C@@H]1CCCCN1 [WV-CA-011-S],3.1,76.98,2.47,2.41,0.00,Rp,100.00,,,,,,,
C[Si](C[C@@H](O)[C@@H]1CCCCN1)(c1ccccc1)c1ccccc1 [WV-CA-012],,,,,,,,68.6%,13.80%,0.25%,57.75%,28.20%,Rp,67.19
CN[C@@H]1CCCC[C@]1(O)c1ccccc1 [WV-CA-024],92.3,3.95,1.02,4.69,88.00,Sp,94.94,,,,,,,
CN[C@@H]1CCCC[C@@]1(O)c1ccccc1 [WV-CA-025],32.8,50.3482,0.5542,5.1613,42.775,Sp,89.23,,,,,,,
CN[C@H]1CCCC[C@@]1(O)c1ccccc1 [WV-CA-026],92.7,3.7919,0.8648,90.8545,2.7404,Rp,97.07,,,,,,,
CN[C@H]1CCCC[C@]1(O)c1ccccc1 [WV-CA-027],37.6,42.968,0.636,47.0728,3.3719,Rp,93.32,,,,,,,
CN[C@H]1CCC[C@]1(O)c1ccccc1 [WV-CA-031],0.0,100.00,0.00,0.00,0.00,Sp,,,,,,,,
C[Si](C[C@@H](O)[C@@H]1CCCCN1)(C1CCCCC1)C1CCCCC1 [WV-CA-045],,,,,,,,75.2%,10.34%,0.86%,61.66%,27.14%,Rp,69.44
C[Si](C[C@H](O)[C@@H]1CCCCN1)(C1CCCCC1)C1CCCCC1 [WV-CA-046],,,,,,,,82.7%,6.81%,0.90%,29.03%,63.25%,Sp,68.54
CN[C@H]1CCCC[C@@]1(O)C1CCCCC1 [WV-CA-047],61.2,23.43,0.83,7.32,64.80,Sp,89.86,,,,,,,
CC(C)[Si](C[C@@H](O)[C@@H]1CCCN1)(C(C)C)C(C)C [WV-CA-050],,,,,,,,97.9% and 95.8%,0.74% and 1.50%,6.30% and 3.27%,1.56% and 1.55%,91.40% and 93.57%,Sp,98.32 and 98.37
C[Si]1(C[C@@H](O)[C@@H]2CCCN2)CCCC1 [WV-CA-051],,,,,,,,68.1%,14.04%,1.19%,2.27%,82.50%,Sp,97.32
C[Si]1(C[C@@H](O)[C@@H]2CCCN2)CCCCC1 [WV-CA-052],,,,,,,,66.4%,15.03%,1.59%,2.33%,81.05%,Sp,97.21
O[C@@H](C[C@@H]1CCCN1)c1ccccc1 [WV-CA-053],42.2,40.4914,0.6205,45.8627,11.777,Rp,79.57,,,,,,,
CC(C)[C@](C)(O)[C@@H]1CCCN1 [WV-CA-056-S],66.4,20.2741,0.2216,9.2876,69.456,Sp,88.21,,,,,,,
CC(C)[C@@](C)(O)[C@@H]1CCCN1 [WV-CA-056],84.8,8.05,0.66,3.49,84.70,Sp,96.04,,,,,,,
OC1([C@@H]2CCCN2)CC1 [WV-CA-057],8.3,9.9999,0.00,0.00,1.80,Sp,100.00,,,,,,,
OC1([C@H]2CCCN2)CCCC1 [WV-CA-059-R],86.8,7.15,1.73,90.17,0.95,Rp,98.96,,,,,,,
OC1([C@@H]2CCCN2)CCCC1 [WV-CA-059],89.5,5.5686,0.4474,1.017,92.058,Sp,98.91,,,,,,,
